Data: the supplement of paper PMC7666118
The list shows a part of the results.

Amino acid sequences for entries named in this document (tags omitted). A change or cut given only in a name is not applied to a line headed by its entry.
UniProt Q03405, whole entry: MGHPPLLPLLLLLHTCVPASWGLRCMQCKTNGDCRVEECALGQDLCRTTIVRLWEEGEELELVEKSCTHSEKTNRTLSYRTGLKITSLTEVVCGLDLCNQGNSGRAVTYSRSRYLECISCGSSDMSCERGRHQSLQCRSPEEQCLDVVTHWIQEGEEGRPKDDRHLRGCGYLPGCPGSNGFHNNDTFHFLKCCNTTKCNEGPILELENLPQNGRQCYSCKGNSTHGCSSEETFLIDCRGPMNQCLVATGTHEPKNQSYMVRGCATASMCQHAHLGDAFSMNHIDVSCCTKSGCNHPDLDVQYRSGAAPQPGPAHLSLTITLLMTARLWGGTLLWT
UniProt Q96S52: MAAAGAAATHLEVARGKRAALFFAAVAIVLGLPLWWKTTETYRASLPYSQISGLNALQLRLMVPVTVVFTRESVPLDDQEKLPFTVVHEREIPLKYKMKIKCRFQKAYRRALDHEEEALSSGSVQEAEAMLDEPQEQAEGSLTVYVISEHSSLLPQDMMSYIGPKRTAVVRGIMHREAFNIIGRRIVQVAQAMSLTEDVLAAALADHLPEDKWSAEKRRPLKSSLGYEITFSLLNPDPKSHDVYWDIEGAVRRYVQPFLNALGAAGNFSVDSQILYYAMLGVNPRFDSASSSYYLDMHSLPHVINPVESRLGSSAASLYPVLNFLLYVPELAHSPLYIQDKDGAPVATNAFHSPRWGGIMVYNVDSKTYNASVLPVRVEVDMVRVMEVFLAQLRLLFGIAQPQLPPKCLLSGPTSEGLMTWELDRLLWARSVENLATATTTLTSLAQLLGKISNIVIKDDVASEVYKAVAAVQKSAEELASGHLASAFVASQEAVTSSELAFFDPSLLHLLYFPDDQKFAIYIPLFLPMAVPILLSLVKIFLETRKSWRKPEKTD
UniProt Q9BZL6: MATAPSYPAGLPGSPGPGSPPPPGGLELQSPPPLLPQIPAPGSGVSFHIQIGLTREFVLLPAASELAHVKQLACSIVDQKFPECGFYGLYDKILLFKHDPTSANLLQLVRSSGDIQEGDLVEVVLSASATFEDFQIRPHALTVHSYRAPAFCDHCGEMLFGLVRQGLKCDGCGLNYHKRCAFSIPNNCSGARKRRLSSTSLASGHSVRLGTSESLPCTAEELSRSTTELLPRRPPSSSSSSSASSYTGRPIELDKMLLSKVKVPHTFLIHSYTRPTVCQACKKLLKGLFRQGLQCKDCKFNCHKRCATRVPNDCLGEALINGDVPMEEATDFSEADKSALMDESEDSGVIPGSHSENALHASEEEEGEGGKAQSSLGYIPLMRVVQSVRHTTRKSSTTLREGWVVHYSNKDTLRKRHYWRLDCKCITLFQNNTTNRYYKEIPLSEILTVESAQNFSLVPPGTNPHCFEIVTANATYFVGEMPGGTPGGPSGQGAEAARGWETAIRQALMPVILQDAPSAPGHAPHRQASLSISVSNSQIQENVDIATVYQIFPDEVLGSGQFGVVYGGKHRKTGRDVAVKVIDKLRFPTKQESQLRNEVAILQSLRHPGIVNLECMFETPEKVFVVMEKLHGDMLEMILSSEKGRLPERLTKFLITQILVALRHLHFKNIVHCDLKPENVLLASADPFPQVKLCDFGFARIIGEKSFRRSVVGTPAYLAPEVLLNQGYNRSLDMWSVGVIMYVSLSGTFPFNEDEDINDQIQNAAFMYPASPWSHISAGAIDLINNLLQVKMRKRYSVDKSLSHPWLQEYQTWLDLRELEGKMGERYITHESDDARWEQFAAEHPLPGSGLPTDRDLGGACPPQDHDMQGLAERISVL
UniProt O75151: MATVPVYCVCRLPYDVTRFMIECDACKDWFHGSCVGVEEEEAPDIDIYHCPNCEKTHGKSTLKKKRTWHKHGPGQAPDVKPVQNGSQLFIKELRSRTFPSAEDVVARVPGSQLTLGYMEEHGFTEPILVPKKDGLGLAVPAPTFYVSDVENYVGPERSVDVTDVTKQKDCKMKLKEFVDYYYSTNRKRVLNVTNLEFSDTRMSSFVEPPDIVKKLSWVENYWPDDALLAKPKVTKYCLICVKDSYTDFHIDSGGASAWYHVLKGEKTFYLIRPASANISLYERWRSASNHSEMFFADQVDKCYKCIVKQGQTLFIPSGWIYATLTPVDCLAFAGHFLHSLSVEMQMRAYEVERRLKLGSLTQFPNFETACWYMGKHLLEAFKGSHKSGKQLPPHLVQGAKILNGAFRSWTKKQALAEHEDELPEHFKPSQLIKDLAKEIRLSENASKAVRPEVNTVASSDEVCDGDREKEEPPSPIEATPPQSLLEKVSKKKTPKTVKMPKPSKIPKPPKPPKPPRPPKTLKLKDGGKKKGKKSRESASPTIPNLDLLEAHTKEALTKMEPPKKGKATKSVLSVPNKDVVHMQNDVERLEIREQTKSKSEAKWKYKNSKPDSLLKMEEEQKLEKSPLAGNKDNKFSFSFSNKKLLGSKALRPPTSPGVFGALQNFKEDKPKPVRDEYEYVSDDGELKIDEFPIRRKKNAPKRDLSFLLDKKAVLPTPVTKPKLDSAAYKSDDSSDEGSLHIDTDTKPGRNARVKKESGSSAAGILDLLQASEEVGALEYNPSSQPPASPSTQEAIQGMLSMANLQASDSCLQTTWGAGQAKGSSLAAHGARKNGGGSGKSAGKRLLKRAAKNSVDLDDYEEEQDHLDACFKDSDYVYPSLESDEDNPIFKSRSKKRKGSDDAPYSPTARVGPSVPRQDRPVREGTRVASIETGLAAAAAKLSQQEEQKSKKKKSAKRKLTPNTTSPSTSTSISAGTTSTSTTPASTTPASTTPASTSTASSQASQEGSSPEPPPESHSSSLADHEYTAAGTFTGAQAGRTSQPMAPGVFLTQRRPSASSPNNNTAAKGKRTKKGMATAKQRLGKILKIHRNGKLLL
UniProt P48454, whole entry: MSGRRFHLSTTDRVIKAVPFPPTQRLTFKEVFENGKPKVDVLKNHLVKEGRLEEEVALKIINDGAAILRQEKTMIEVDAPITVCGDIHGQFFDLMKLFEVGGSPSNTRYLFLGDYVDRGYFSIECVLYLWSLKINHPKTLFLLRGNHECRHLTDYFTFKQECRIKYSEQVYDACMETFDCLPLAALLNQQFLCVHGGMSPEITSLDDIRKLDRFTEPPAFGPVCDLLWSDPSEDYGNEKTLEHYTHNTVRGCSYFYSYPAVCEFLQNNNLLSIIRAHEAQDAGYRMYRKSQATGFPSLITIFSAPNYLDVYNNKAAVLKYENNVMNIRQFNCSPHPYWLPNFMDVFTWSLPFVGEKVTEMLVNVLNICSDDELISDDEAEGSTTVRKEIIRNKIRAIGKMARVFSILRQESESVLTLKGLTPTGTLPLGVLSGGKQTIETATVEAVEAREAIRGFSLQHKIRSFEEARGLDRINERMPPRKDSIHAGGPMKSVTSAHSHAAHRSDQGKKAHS
UniProt O60678: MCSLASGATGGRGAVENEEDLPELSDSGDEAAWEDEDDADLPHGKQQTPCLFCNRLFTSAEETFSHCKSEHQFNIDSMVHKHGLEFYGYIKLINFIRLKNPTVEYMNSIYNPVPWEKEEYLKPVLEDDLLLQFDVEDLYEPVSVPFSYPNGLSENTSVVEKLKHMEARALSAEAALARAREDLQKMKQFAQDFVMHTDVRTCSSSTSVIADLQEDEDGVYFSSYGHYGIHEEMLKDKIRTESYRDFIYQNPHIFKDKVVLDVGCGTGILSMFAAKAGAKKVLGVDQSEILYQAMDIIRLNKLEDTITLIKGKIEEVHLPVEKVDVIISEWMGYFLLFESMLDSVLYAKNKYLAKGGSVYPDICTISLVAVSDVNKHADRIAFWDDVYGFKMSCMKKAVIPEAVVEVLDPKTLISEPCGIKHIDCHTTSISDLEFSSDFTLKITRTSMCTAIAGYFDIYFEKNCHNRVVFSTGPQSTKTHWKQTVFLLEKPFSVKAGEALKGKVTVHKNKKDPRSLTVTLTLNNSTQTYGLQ
UniProt Q969H6: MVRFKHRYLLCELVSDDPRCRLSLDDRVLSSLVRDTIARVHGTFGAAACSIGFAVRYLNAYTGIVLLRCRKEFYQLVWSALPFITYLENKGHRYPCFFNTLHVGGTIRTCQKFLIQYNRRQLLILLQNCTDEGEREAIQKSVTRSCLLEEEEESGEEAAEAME
UniProt O15355: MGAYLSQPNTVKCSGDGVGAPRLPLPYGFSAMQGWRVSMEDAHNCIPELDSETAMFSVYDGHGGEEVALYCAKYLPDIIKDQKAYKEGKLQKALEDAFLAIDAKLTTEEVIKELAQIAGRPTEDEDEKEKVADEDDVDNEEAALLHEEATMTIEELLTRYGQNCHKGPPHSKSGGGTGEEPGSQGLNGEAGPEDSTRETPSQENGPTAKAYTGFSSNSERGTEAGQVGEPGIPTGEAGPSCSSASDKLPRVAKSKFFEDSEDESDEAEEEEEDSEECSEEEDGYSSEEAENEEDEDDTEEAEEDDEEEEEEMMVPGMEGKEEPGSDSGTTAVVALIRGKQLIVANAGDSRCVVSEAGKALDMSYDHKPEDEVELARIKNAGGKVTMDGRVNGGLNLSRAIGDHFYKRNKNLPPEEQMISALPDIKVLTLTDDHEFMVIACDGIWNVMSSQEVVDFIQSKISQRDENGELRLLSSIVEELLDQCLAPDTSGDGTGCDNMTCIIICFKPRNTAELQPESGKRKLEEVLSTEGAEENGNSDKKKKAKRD
UniProt P63098, whole entry, looked up: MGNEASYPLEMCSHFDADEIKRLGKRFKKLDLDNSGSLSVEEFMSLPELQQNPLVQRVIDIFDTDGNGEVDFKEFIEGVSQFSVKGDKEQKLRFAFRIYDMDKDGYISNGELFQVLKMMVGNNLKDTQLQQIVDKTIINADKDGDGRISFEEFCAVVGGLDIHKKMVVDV
UniProt P14618, whole entry, looked up: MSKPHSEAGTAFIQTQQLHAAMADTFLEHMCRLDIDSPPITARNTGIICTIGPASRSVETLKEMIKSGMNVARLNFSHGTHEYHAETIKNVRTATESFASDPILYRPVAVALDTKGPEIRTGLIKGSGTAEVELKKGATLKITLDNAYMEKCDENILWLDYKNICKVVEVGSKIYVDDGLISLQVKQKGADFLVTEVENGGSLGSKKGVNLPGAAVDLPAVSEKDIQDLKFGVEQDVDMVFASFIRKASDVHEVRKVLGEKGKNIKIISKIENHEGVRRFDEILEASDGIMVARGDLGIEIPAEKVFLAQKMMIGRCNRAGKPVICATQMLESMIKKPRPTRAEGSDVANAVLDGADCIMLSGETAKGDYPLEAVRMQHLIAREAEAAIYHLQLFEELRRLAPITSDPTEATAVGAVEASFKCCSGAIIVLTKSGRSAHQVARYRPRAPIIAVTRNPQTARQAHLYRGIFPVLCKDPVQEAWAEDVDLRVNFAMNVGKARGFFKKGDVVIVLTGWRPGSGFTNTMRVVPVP
UniProt Q06830: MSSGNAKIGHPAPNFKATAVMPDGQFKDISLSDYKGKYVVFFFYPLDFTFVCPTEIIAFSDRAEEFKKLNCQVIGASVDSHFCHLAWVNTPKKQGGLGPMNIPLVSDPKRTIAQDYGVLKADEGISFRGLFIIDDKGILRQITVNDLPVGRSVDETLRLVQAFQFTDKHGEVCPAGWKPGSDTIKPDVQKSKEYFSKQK

What follows are targets tested with COc1ccc(Cn2ccc3ccc(C(=O)NO)cc32)cc1 (assay: dose-dependent thermal stabilisation call (2D-TPP, DLPTP, 10% FDR) (binary (1 = stabilised)); higher = stabilised by the compound). Conditions: system: HL-60 intact cells; concentration range 0.04-10 µM.

| Target | dose-dependent thermal stabilisation call |
| --- | --- |
| PLAUR (UniProt Q03405) | inactive: 0 |
| PIGS (UniProt Q96S52) | inactive: 0 |
| PRKD2 (UniProt Q9BZL6) | inactive: 0 |
| PHF2 (UniProt O75151) | inactive: 0 |
| PPP3CC (UniProt P48454) | inactive: 0 |
| PRMT3 (UniProt O60678) | inactive: 0 |
| POP5 (UniProt Q969H6) | inactive: 0 |
| PPM1G (UniProt O15355) | inactive: 0 |
| PPP3R1 (UniProt P63098) | inactive: 0 |
| PKM2 (UniProt P14618) | inactive: 0 |
| PRDX1 (UniProt Q06830) | inactive: 0 |
